# From article PMC10564737, “Structure-based design of a phosphotyrosine-masked covalent ligand targeting the E3 ligase SOCS2” (Nature Communications, 2023)
# By UniProt entry, the sequences of proteins in these tests, tags left out. Residues count along the entry.
# UniProt O14508, 32-198: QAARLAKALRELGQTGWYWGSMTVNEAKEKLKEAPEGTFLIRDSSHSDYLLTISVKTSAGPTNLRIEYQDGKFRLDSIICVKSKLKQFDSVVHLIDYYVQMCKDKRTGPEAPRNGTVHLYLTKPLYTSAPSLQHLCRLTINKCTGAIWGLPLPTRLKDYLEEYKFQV
# Several values for one entry are separate records, joined by “and”; a condition that tells them apart may be missing. Equal entries are not always repeated. Further values from the same series stand in other lists.
# Molecular target: T1, SBC2 (Homo sapiens, UniProt O14508)
# T1 construct: SOCS2 (amino acids 32–198); His6 (N, cleaved yes); made in house; host or cells: E. coli BL21(DE3)
# Assay: Covalent fluorescence polarization (FP) probe displacement assay
# Format: binding
# Excerpt: With the specific covalent modification of Cys111 established, we decided to fully characterize MN551 as a covalent SOCS2 inhibitor. […] (Fig. 2g, h, Supplementary Fig. 9). Due to the covalent nature of the competing inhibitor, a time-dependent reduction in the fraction of protein-bound probe is observed. […] This value illustrates reasonable specificity for a covalent inhibitor, with nonetheless scope for future optimization. In addition to characterizing the kinetic covalency parameters, we have also assessed the stability of the MN551 by monitoring its reactivity (half-life >70 min) with reduced glutathione (GSH) (Supplementary Fig. 10)[35].
# To monitor the SBC2-ligand binding kinetics we designed a fluorescein-labeled small-molecule probe - compound 26. The fluorescence polarization (anisotropy) of a threefold serial dilution of 50 µM SBC2 in 10 nM of the probe in 100 mM HEPES pH 7.5, 50 mM NaCl, 0.5 mM TCEP, 2% DMSO was measured to determine the KL (Supplementary Fig. 9A) (BMG Labtech PHERAstar – firmware v1.33). Protein titration and the curves were fitted using GraphPad Prism 9, using one-site fitting models to determine the probe binding constant, KL. Samples were run in triplicate in 384 well plates, using a total volume per well of 16 μL. The bound fraction of the probe is measure using the equation:1 Fb=Af−A/Af−Ab Where,
# A time-dependent reduction in probe anisotropy were measured for a 2-fold serial dilution of […] compound MN551 in 10 nM probe +300 μM SBC2. To determine the initial reversible binding affinity, the initial bound fraction of the probe at time = 0, Fbo (the y-intercept in Fb v/s Time plot, Supplementary Fig. 9B) was plotted against MN551 concentration, and the obtained IC50 is then converted to Ki (Supplementary Fig. 9C)[17]. The slope from Fb versus time graph when divided by Fbo gives rate of covalency, kobs. A plot of kobs v/s MN551 concentration using Michaelis–Menten model of GraphPad Prism 9, provides the parameters kinact (maximum potential rate of inactivation) and KI (concentration of MN551 at which kobs = kinact/2) (Supplementary Fig. 9D, E).
# The observed first-order rate constant, kobs is related to KI and kinact by the equation:2 kobs=kinactI/KI+I
# At [I]«[KI] the above equation is converted to3 […]
# The slope from the plot of kobs against concentration of MN551 gives us the covalent efficiency parameter kinact/KI (Supp Fig. 9F)[30],[33].
# [1] = MN551 12.599 nM; Cycle 8 (35 min)
# [2] = MN551 12.599 nM; Cycle 9 (40 min)
# [3] = MN551 12.599 nM; Cycle 10 (45 min)
# [4] = MN551 12.599 nM; Cycle 12 (55 min); n=1
# [5] = MN551 12.599 nM; Cycle 13 (60 min); n=1
# [6] = MN551 12.599 nM; Cycle 14 (65 min); n=1
# [7] = MN551 12.599 nM; Cycle 15 (70 min); n=1
# [8] = MN551 17.6386 nM, Cycle 8 (35 min)
# [9] = MN551 17.6386 nM, Cycle 9 (40 min)
# [10] = MN551 17.6386 nM, Cycle 10 (45 min)
# [11] = MN551 17.6386 nM, Cycle 11 (50 min)
# [12] = MN551 17.6386 nM, Cycle 15 (70 min), n=1
# [13] = MN551 17.6386 nM, Cycle 16 (75 min), n=1
# [14] = MN551 17.6386 nM, Cycle 17 (80 min), n=1
# [15] = MN551 17.6386 nM; Cycle 6 (25 min)
# [16] = MN551 17.6386 nM; Cycle 7 (30 min)
# [17] = MN551 17.6386 nM; Cycle 8 (35 min)
# [18] = MN551 17.6386 nM; Cycle 9 (40 min)
# [19] = MN551 17.6386 nM; Cycle 10 (45 min)
# [20] = MN551 17.6386 nM; Cycle 12 (55 min); n=1
# [21] = MN551 17.6386 nM; Cycle 13 (60 min); n=1
# [22] = MN551 17.6386 nM; Cycle 14 (65 min); n=1
# [23] = MN551 17.6386 nM; Cycle 15 (70 min); n=1
# [24] = MN551 17.6386 nM; Cycle 16 (75 min); n=1
# [25] = MN551 24.4141 nM, Cycle 8 (35 min)
# [26] = MN551 24.4141 nM, Cycle 9 (40 min)
# [27] = MN551 24.4141 nM, Cycle 10 (45 min)
smiles,measurement,setting,value
O=C(CCl)Nc1cccc(CNC(=O)[C@H](Cc2ccc(OP(=O)(O)O)cc2)NC(=O)Cc2ccc(F)cc2)c1 [MN551],Anisotropy,[1],281 and 279.2 and 278.1
same,"Anisotropy data 485,520,520",[1],273.2 and 268.6 and 268.9
same,Fb,[1],0.9273 and 0.9804 and 1.0324 and 1.043 and 0.9991 and 1.024
same,Anisotropy,[2],280.4 and 278 and 277.6
same,"Anisotropy data 485,520,520",[2],274.9 and 267.4 and 269.4
same,Fb,[2],0.942 and 1.014 and 1.038 and 1.045 and 0.983 and 1.015
same,Anisotropy,[3],281.9 and 276.8 and 276.4
same,"Anisotropy data 485,520,520",[3],272.1 and 266.8 and 270.3
same,Fb,[3],0.9586 and 0.979 and 1.052 and 1.051 and 0.9824 and 1.003
same,Anisotropy,MN551 12.599 nM; Cycle 11 (50 min); n=1,271.5 and 266.2 and 266.8
same,Anisotropy,MN551 12.599 nM; Cycle 12 (55 min),278.4 and 276.3 and 274.6
same,Anisotropy,[4],270.3 and 265 and 268.4
same,Anisotropy based on Raw Data (485),[4],271.2 and 270.7 and 268.1
same,Anisotropy,[5],268.9 and 264.1 and 266.9
same,Anisotropy based on Raw Data (485),[5],270.2 and 269.7 and 268.3
same,Anisotropy,[6],269.7 and 262.2 and 264.7
same,Anisotropy based on Raw Data (485),[6],268.8 and 269.2 and 268.6
same,Anisotropy,[7],270 and 262.2 and 263.7
same,Anisotropy based on Raw Data (485),[7],267.5 and 265 and 263.8
same,"Anisotropy data 485,520,520",MN551 12.599 nM; Cycle 19 (90 min); n=1,274.9 and 271 and 271.4
same,"Anisotropy data 485,520,520",MN551 12.599 nM; Cycle 20 (95 min); n=1,272.2 and 271.2 and 270
same,Fb,"MN551 17.6386 nM, Cycle 7 (30 min)",0.9432 and 0.9544 and 0.9619
same,Anisotropy based on Raw Data (485),[8],276.3 and 273.4 and 273.1
same,Fb,[8],0.9267 and 0.9481 and 0.9419
same,Anisotropy based on Raw Data (485),[9],273.6 and 274.5 and 270
same,Fb,[9],0.9011 and 0.9496 and 0.9499
same,Anisotropy based on Raw Data (485),[10],274.3 and 271.7 and 270.8
same,Fb,[10],0.925 and 0.9511 and 0.9718
same,Anisotropy based on Raw Data (485),[11],274.7 and 271.2 and 270.6
same,Fb,[11],0.9333 and 0.9243 and 0.9768
same,Anisotropy,"MN551 17.6386 nM, Cycle 13 (60 min), n=1",281.7 and 277.6 and 275.8
same,Anisotropy,"MN551 17.6386 nM, Cycle 14 (65 min), n=1",280.8 and 275.7 and 274
same,Anisotropy,[12],281 and 274 and 274.8
same,"Normalised anisotropy (0 nM MN551 = 1, free probe = 0)",[12],1.0809 and 0.9943 and 1.013
same,Anisotropy,[13],280.1 and 275.6 and 273.8
same,"Normalised anisotropy (0 nM MN551 = 1, free probe = 0)",[13],1.043 and 1.026 and 1.003
same,Anisotropy,[14],277.6 and 273.4 and 274.2
same,"Normalised anisotropy (0 nM MN551 = 1, free probe = 0)",[14],1.046 and 0.9971 and 1.036
same,"Fb, fraction bound",MN551 17.6386 nM; Cycle 3 (10 min),1.072 and 1.02 and 1.025
same,"Fb, fraction bound",MN551 17.6386 nM; Cycle 4 (15 min),1.083 and 1.022 and 1.06
same,"Fb, fraction bound",MN551 17.6386 nM; Cycle 5 (20 min),1.053 and 1.021 and 1.052
same,"Anisotropy data 485,520,520",[15],278.5 and 272.3 and 275.8
same,Fb,[15],0.9485 and 0.9804 and 1.036
same,"Fb, fraction bound",[15],1.039 and 1.012 and 1.02
same,"Anisotropy data 485,520,520",[16],276.9 and 272.1 and 272.6
same,Fb,[16],0.9844 and 0.9814 and 1.0283
same,"Fb, fraction bound",[16],1.038 and 1.003 and 1.033
same,Anisotropy,[17],284.7 and 280.2 and 281
same,"Anisotropy data 485,520,520",[17],275.9 and 271.7 and 272.3
same,Fb,[17],0.9751 and 0.9892 and 1.068 and 1.078 and 1.008 and 1.053
same,Anisotropy,[18],283.9 and 280.3 and 280.1
same,"Anisotropy data 485,520,520",[18],272.9 and 270.4 and 271.6
same,Fb,[18],0.9603 and 1.02 and 1.029 and 1.078 and 1.005 and 1.039
same,Anisotropy,[19],282.5 and 279.3 and 278.2
same,"Anisotropy data 485,520,520",[19],271.9 and 267.8 and 272.4
same,Fb,[19],0.9913 and 0.987 and 1.066 and 1.0566 and 1.006 and 1.02
same,Anisotropy,MN551 17.6386 nM; Cycle 11 (50 min); n=1,272.7 and 267.2 and 271.7
same,Anisotropy,[20],273 and 266.9 and 270.4
same,Anisotropy based on Raw Data (485),[20],273.4 and 271.6 and 267.8
same,Anisotropy,[21],271.5 and 263.7 and 266.8
same,Anisotropy based on Raw Data (485),[21],272.7 and 270.5 and 269.5
same,Anisotropy,[22],271.6 and 263.6 and 267.8
same,Anisotropy based on Raw Data (485),[22],273.6 and 269.8 and 267.5
same,Anisotropy,[23],270.9 and 265 and 268.1
same,Anisotropy based on Raw Data (485),[23],273 and 269.5 and 267.5
same,Anisotropy,[24],269.7 and 261 and 265.8
same,Anisotropy based on Raw Data (485),[24],268.8 and 268.3 and 264.8
same,"Anisotropy data 485,520,520",MN551 17.6386 nM; Cycle 19 (90 min); n=1,279.6 and 271 and 272.7
same,"Anisotropy data 485,520,520",MN551 17.6386 nM; Cycle 20 (95 min); n=1,275.6 and 272 and 272.6
same,Fb,"MN551 24.4141 nM, Cycle 7 (30 min)",0.8913 and 0.9456 and 0.9838
same,Anisotropy based on Raw Data (485),[25],282.3 and 281 and 280.6
same,Fb,[25],0.8909 and 0.9733 and 0.9792
same,Anisotropy based on Raw Data (485),[26],281.1 and 280.1 and 278.6
same,Fb,[26],0.8729 and 0.9828 and 0.9742
same,Anisotropy based on Raw Data (485),[27],279.7 and 279.2 and 278.1
same,Fb,[27],0.8604 and 0.9623 and 0.9864
same,Anisotropy based on Raw Data (485),"MN551 24.4141 nM, Cycle 11 (50 min)",279.7 and 280.2 and 277.8
same,Anisotropy,"MN551 24.4141 nM, Cycle 13 (60 min), n=1",279.2 and 278.9 and 278.1
same,Anisotropy,"MN551 24.4141 nM, Cycle 14 (65 min), n=1",279.8 and 278.8
same,Anisotropy,"MN551 24.4141 nM, Cycle 15 (70 min), n=1",278.6 and 279.7 and 276.3
